The values below come from patent US6808893.

No constants are given. Whether binding was seen depends on the method and setting. For part of these data: Binding seen in cells or lysates may run through a third protein. Some results given as binding are weak or reduced against the parent protein; the word gives no strength. For part of these data: Where a sequence is shown, tags or fusion partners need not be part of it.

Assay [1] concerns the target EAAC1 carboxy-terminal intracellular domain bait (carboxy-87 amino acids) (UniProt P04386). In words: yeast two-hybrid, EAAC1 carboxy-terminal bait against adult rat brain cDNA library, β-galactosidase.
Assay [2] addresses T1, EAAC1, full-length glutamate transporter (rat) (UniProt P51907).
T1 sequence (looked up): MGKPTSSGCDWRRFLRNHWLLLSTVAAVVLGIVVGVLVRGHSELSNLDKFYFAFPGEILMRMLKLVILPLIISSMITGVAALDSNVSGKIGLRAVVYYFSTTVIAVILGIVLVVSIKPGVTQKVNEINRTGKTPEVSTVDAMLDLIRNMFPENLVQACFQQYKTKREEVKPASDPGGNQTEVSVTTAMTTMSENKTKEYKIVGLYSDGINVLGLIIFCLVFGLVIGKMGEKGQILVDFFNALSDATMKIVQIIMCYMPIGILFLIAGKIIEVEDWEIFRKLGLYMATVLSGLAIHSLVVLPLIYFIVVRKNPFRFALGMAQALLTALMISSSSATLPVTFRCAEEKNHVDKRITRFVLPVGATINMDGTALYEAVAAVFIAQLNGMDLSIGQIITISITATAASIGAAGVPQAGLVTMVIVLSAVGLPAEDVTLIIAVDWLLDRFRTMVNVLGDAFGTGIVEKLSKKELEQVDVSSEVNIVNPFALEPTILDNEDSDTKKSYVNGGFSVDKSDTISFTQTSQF
Kind of assay: co-immunoprecipitation from rat brain extract, Western blotting. (In general: A western blot detects proteins with antibodies after separation by electrophoresis.)

Assay [3] addresses T1, EAAC1, full-length glutamate transporter (rat). In words: co-immunoprecipitation from transfected HEK293 cells.
Assay [4] has as its target T2, GST-EAAC1 fusion protein (UniProt P51907).
T2 sequence (looked up): T1 sequence (looked up)
In words: cell-free binding of [35S]-labeled protein to GST fusion on glutathione-Sepharose.

Assay [5] has as its target EAAT4 carboxy-intracellular domain bait (final 77 amino acids of EAAT4 in pGBT9) (UniProt P04386). In words: yeast two-hybrid, EAAT4 final 77 amino acids bait against rat brain cDNA library.
For assay [6] the target is unchanged. Kind of assay: yeast two-hybrid.

B1: clone E18 (GTRAP3-18 full-length cDNA) of the yeast two-hybrid screen (protein, not shown: large carriers)
chain: MDVNLAPLRAWDDFFPGSDRFARPDFRDISKWNNRVVSNLLYYQTNYLVVAAMMISVVGFLSPFNMILGGIIVVLVFTGFVWAAHNKDILRRMKKQYPTAFVMVVMLASYFLISMFGGVMVFVFGITFPLLLMFIHASLRLRNLKNKLENKMEGIGLKKTPMGIILDALEQQEDSINKFADYISKARE
Take B1: in assay [1], the binding entry is on record as “binds”.

B2: GTRAP3-18 (glutamate transporter EAAC1 associated protein), full-length (protein)
chain: B1 chain
Regarding B2, the binding entry in assay [2] is listed as “binds”.

B3: amino-terminus c-myc tagged GTRAP3-18 (protein, not shown: small tags and cut ends)
chain: B1 chain
As to B3, the binding result in assay [3] is given as “binds”.

B4: [35S]-methionine labelled GTRAP3-18 made by in vitro transcription and translation (protein)
chain: B1 chain
modifications: labeled with [35S]-methionine
Take B4: in assay [4], the binding result was “binds”.

B5: GTRAP4-48 yeast two-hybrid clone (1.4 kb cDNA fragment in pGAD10; last 155 amino acids) (protein, not shown: large carriers)
chain: FYVSMPAGPLDSSTEPTGTPPSPSQCHSLPAWPTEPQPYRGVRGGQCSSLVRRDVDVIFHTIEQLTIKLHRLKDMELAHRELLKSLGGESSGGTTPVGSFHTEAARWTDYSLSPPAKEALASDSQNGQEQGSCPEEGSDIALEDSATDTAVSPGP
For the molecule B5, the binding entry in assay [5] and in assay [6] was “binds” throughout.
